Experimental data reported in PMC9932167.
These are yes or no findings as the source states them, for the method shown. For part of these data: Binding seen in cells or lysates may run through a third protein. Some binding calls cover weakened binding; strength is not graded here.

The chains behind the UniProt entries cited, without tags or fusion partners. Where a name states a change or a piece, a line headed by the entry shows the natural chain unless it says otherwise. A line that says so, or that is headed by a name, gives the form on record, which may keep a tag or linker.
UniProt Q1HFZ0: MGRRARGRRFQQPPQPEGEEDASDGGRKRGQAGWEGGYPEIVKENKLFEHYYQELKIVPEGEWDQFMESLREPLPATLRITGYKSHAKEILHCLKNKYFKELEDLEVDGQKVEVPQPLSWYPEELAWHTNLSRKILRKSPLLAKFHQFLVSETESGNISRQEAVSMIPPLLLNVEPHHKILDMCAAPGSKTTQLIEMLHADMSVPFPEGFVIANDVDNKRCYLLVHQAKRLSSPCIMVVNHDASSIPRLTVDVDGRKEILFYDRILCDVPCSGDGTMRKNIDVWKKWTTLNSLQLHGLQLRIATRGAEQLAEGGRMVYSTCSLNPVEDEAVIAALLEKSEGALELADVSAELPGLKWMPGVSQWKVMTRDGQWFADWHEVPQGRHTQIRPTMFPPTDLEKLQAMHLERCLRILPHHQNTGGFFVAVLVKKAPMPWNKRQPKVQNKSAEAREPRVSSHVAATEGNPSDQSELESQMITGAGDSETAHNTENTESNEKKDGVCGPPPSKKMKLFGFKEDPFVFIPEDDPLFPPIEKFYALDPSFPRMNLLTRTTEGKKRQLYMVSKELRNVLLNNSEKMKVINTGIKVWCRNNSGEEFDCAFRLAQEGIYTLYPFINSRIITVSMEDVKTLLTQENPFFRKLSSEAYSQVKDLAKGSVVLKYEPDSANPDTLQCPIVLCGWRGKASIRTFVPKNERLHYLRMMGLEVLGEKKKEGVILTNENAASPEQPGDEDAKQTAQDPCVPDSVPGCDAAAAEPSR
GST-RoRγt protein (P51450-2, form named): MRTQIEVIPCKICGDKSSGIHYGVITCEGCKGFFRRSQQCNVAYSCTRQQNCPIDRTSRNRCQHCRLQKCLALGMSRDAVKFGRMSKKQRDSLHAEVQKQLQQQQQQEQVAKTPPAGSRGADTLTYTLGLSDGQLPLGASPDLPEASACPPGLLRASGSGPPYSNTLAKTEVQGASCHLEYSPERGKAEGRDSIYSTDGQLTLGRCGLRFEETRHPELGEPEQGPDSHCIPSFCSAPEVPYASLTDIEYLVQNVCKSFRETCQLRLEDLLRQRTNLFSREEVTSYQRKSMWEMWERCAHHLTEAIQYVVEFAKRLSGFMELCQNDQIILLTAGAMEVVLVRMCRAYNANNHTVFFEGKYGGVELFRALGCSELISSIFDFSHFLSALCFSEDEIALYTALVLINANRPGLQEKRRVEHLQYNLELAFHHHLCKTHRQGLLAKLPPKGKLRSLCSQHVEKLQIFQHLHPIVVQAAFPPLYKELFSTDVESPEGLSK

Key:
[1] = target: Flag-Nsun2 (pCDNA3.1-Flag-Nsun2, wild-type mouse Nsun2) (mouse) (UniProt Q1HFZ0); assay: co-IP; HEK293T co-transfected with Myc-RoRγt and Flag-Nsun2 or Flag-EV for 2 days; RIPA lysates treated with DNase I and RNase A; anti-Flag beads or anti-Myc beads, 3 h; western blot
[2] = target: Nsun2 (RNA 5-methylcytosine methyltransferase), endogenous in mouse Th17 cells (mouse (endogenous in Th17 cells)) (UniProt Q1HFZ0); assay: proximity ligation; PLA for Nsun2 and RoRγt in induced Th17 cells; signal in the nucleus (DAPI)
[3] = target: GST-RoRγt protein (mouse) (UniProt P51450); assay: pull-down; 5 μg purified Flag-Nsun2 mixed with GST or GST-RoRγt protein and glutathione Sepharose beads in NETN buffer (100 mM NaCl, 1 mM EDTA, 20 mM Tris-HCl pH 7.4, 0.5% NP-40), 4 °C, 4 h; western blot; both purified

## Myc-RoRγt (pCMV-Myc-RoRγt, wild-type mouse RoRγt) (from UniProt P51450-2 1-495)
[1]
  binding: binds

## Retinoic acid receptor-related orphan receptor gamma t (RoRγt), endogenous in mouse Th17 cells (from UniProt P51450-2 1-495)
[2]
  binding: binds

## purified Flag-Nsun2 (mouse) protein (from UniProt Q1HFZ0 1-757) (enzyme)
[3]
  binding: binds
